Experimental data published in the supplement of paper PMC10331698.
± gives the standard deviation of the averaged measurements. Small differences around the control level are noise.

Key:
Experiment in all cases: level (log10 ratio to DMSO vehicle control); higher = higher biomarker level / cell amount than vehicle control
[1] = compound: FC(F)(F)C(F)(F)C(F)(F)C(F)(F)C(F)(F)C(F)(F)C(F)(F)I [1-Iodopentadecafluoroheptane]; settings: in DMSO
Method: (§1)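 BioMAP Diversity Plus panel of 12 human primary cell co-culture systems (3C, 4H, LPS, SAg, BT, BF4T, BE3C, CASM3C, HDF3CGF, KF3CT, MyoF, Mphg). Compounds were added 1 h before stimulation and left for 24 h (MyoF 48 h; BT 72 h for soluble read-outs or 6 d for IgG). Biomarkers were read by ELISA, cytotoxicity by SRB, PBMC viability and proliferation by Alamar Blue. Each well value was divided by the mean of 8 DMSO control wells on the same plate and log10 transformed; duplicate blinded samples were tested at 4 concentrations.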

Perfluorooctanamide = compound: NC(=O)C(F)(F)C(F)(F)C(F)(F)C(F)(F)C(F)(F)C(F)(F)C(F)(F)F [Perfluorooctanamide]; settings: 2200 nM; in DMSO
Method: as §1

[2] = compound: O=C(O)C(F)(F)C(F)(F)C(F)(F)C(F)(F)C(F)(F)C(F)(F)C(F)(F)C(F)F [9-H-Perfluorononanoic acid]; settings: 2200 nM; in DMSO
Method: as §1

Perfluorobutanoic acid = compound: O=C(O)C(F)(F)C(F)(F)C(F)(F)F [Perfluorobutanoic acid]; settings: 2200 nM; in DMSO
Method: as §1

[3] = compound: O=C(O)C(F)(F)OC(F)(F)C(F)(F)OC(F)(F)C(F)(F)C(F)(F)C(F)(F)F [Perfluoro-3,6-dioxadecanoic acid]; settings: 2200 nM; in DMSO
Method: as §1

[4] = compound: FC(F)(F)C(F)(F)C(F)(F)C(F)(F)C(F)(F)C(F)(F)C(F)(F)CCI [1-Iodo-1H,1H,2H,2H-perfluorononane]; settings: in DMSO
Method: as §1

[5] = compound: C=C(C)C(=O)OCC(F)(F)C(F)(F)C(F)(F)F [2,2,3,3,4,4,4-Heptafluorobutyl methacrylate]; settings: 2200 nM; in DMSO
Method: as §1

Perfluoropropanoic acid = compound: O=C(O)C(F)(F)C(F)(F)F [Perfluoropropanoic acid]; settings: 2200 nM; in DMSO
Method: as §1

[6] = compound: O=C(O)C(F)(F)OC(F)(F)C(F)(F)OC(F)(F)C(=O)O [Perfluoro-3,6-dioxaoctane-1,8-dioic acid]; settings: 2200 nM; in DMSO
Method: as §1

[7] = compound: OCCC(F)(F)C(F)(F)C(F)(F)C(F)(F)C(F)(F)C(F)(F)C(F)(F)C(F)(F)F [8:2 Fluorotelomer alcohol]; settings: 2200 nM; in DMSO
Method: as §1

[8] = compound: FC(F)C(F)(F)COCC1CO1 [((2,2,3,3-Tetrafluoropropoxy)methyl)oxirane]; settings: 2200 nM; in DMSO
Method: as §1

[9] = compound: OCC(F)(F)C(F)(F)C(F)(F)C(F)(F)C(F)(F)C(F)(F)C(F)(F)C(F)(F)C(F)(F)C(F)(F)C(F)(F)F [11:1 Fluorotelomer alcohol]; settings: in DMSO
Method: as §1

[10] = compound: O=S(=O)(Cl)C(F)(F)C(F)(F)C(F)(F)C(F)(F)C(F)(F)C(F)(F)C(F)(F)C(F)(F)F [Perfluoro-1-octanesulfonyl chloride]; settings: 2200 nM; in DMSO
Method: as §1

[11] = compound: O=C(O)C(F)(F)C(F)(F)OC(F)(F)F [Perfluoro-3-methoxypropanoic acid]; settings: 2200 nM; in DMSO
Method: as §1

[12] = compound: O=C(O)C=CC(F)(C(F)(F)F)C(F)(F)F [3-(Perfluoroisopropyl)-2-propenoic acid]; settings: in DMSO
Method: as §1

Perfluoroundecanoic acid = compound: O=C(O)C(F)(F)C(F)(F)C(F)(F)C(F)(F)C(F)(F)C(F)(F)C(F)(F)C(F)(F)C(F)(F)C(F)(F)F [Perfluoroundecanoic acid]; settings: in DMSO
Method: as §1

[13] = compound: C=CC(=O)OCC(F)(F)C(F)(F)C(F)(F)C(F)(F)COC(=O)C=C [1H,1H,6H,6H-Perfluorohexane-1,6-diol diacrylate]; settings: 2200 nM; in DMSO
Method: as §1

[14] = compound: O=P(O)(O)CCC(F)(F)C(F)(F)C(F)(F)C(F)(F)C(F)(F)C(F)(F)C(F)(F)C(F)(F)F [((Perfluorooctyl)ethyl)phosphonic acid]; settings: 2200 nM; in DMSO
Method: as §1

Test System | level (log10) ([1]; 740 nM) | level (log10) ([1]; 2200 nM) | level (log10) ([1]; 6700 nM) | level (log10) ([1]; 20000 nM) | level (log10) (Perfluorooctanamide) | level (log10) [2] | level (log10) (Perfluorobutanoic acid) | level (log10) [3] | level (log10) ([4]; 740 nM) | level (log10) ([4]; 2200 nM) | level (log10) ([4]; 6700 nM) | level (log10) ([4]; 20000 nM) | level (log10) [5] | level (log10) (Perfluoropropanoic acid) | level (log10) [6] | level (log10) [7] | level (log10) [8] | level (log10) ([9]; 370 nM) | level (log10) ([9]; 1100 nM) | level (log10) ([9]; 3300 nM) | level (log10) ([9]; 10000 nM) | level (log10) [10] | level (log10) [11] | level (log10) ([12]; 2200 nM) | level (log10) ([12]; 6700 nM) | level (log10) ([12]; 20000 nM) | level (log10) ([12]; 60000 nM) | level (log10) (Perfluoroundecanoic acid; 740 nM) | level (log10) (Perfluoroundecanoic acid; 2200 nM) | level (log10) [13] | level (log10) [14]
BE3C:EGFR | 0.012 ± 0.023 | 0.051 ± 0.013 | 0.014 ± 0.0071 | 0.0185 ± 0.026 | 0.004 ± 0.028 | -0.0215 ± 0.005 | -0.0035 ± 0.018 | -0.0065 ± 0.011 | 0.009 ± 0.028 | -0.0005 ± 0.0035 | 0.005 ± 0.014 | -0.008 ± 0.02 | 0.025 ± 0.016 | 0.002 ± 0.011 | 0.0125 ± 0.043 | -0.005 ± 0.0099 | -0.0035 ± 0.012 | 0.0045 ± 0.029 | -0.022 ± 0.011 | -0.003 ± 0.018 | -0.019 ± 0.0099 | -0.003 ± 0.014 | -0.0005 ± 0.081 | -0.007 ± 0.025 | 0.0005 ± 0.016 | 0.0085 ± 0.00071 | 0.004 ± 0.0014 | 0.018 ± 0.017 | 0.0205 ± 0.011 | 0.0095 ± 0.021 | 0.0015 ± 0.016
MyoF:CD106/VCAM-1 | -0.0115 ± 0.00071 | -0.017 ± 0.0071 | -0.091 ± 0.0057 | -0.448 ± 0.019 | -0.011 ± 0.0085 | -0.022 ± 0.014 | -0.025 ± 0.0042 | -0.015 | -0.018 ± 0.023 | -0.012 ± 0.0099 | -0.007 ± 0.023 | -0.003 ± 0.0014 | -0.0035 ± 0.037 | 0.011 ± 0.0057 | -0.015 ± 0.021 | -0.001 ± 0.016 | -0.027 ± 0.0014 | -0.0115 ± 0.00071 | -0.0055 ± 0.037 | -0.0075 ± 0.022 | -0.0025 ± 0.00071 | 0.002 ± 0.021 | -0.008 ± 0.045 | 0.0095 ± 0.015 | 0.006 ± 0.011 | 0.0035 ± 0.00071 | -0.0035 ± 0.0035 | 0.007 ± 0.041 | 0.008 | -0.052 ± 0.038 | 0.0125 ± 0.015
KF3CT:PAI-I | -0.0045 ± 0.018 | -0.02 ± 0.011 | -0.0055 ± 0.04 | -0.0275 ± 0.028 | -0.0035 ± 0.013 | 0.0125 ± 0.012 | 0.0015 ± 0.029 | 0.0025 ± 0.005 | 0.02 ± 0.014 | 0.004 | 0.0115 ± 0.022 | 0.017 ± 0.021 | 0.001 ± 0.018 | 0.047 ± 0.0085 | -0.0175 ± 0.0035 | -0.0255 ± 0.018 | 0.0065 ± 0.00071 | -0.002 ± 0.0057 | -0.002 ± 0.0071 | -0.0055 ± 0.012 | 0.001 ± 0.023 | -0.007 ± 0.014 | -0.023 ± 0.014 | 0.0155 ± 0.025 | 0.0045 ± 0.0092 | 0.023 ± 0.0085 | 0.0165 ± 0.0021 | 0.003 | -0.006 ± 0.018 | 0.014 ± 0.0099 | -0.0175 ± 0.00071
